These are yes or no findings as the source states them, for the method shown. In cells and extracts the contact can be indirect. A result given as binding can be weak or reduced; the word gives no strength. Where a sequence is shown, tags or fusion partners need not be part of it.
Molecular target: the first WW domain of WWOX (WWOXww), fluorescent construct for FRET (murine)
Assay: FRET or BRET; three-protein FRET microscopy in COS7 cells transfected with the first WW domain of WWOX (WWOXww), TIAF1 and p53, treated with Prima-1 over time; FRETc

B1: TIAF1-EGFP (protein, UniProt O95411 1-115)
chain: MSSPSSPFREQSFLCAAGDAGEESRVQVLKNEVRRGSPVLLGWVEQAYADKCVCGPSAPPAPTPPSLSQRVMCNDLFKVNPFQLQQFRADPSTASLLLCPGGLDHKLNLRGKAWG
  binding: binds

From publication PMC6637503
